# Counter-ions that a name gives are not always drawn. The list shows a part of the results. Repeats in this data set agree poorly, so a single value says little.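 Cells: ReNCell VM human fetal ventral-midbrain neural progenitors, differentiated mitogen-free. Blinded raters compared doublecortin-stained (early neurons) or tyrosine hydroxylase-stained (dopaminergic neurons) images with untreated wells, where 0 means no change. After repeats and both raters were averaged, compounds scoring 2 or above became hits for retesting.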
# Legend:
# [1] = test system: ReNCell VM; test: neuronal differentiation score (DCX+ cell fraction vs untreated, manual image score) (score (-3 to 3)); higher = more neuronal differentiation; conditions: 2 uM, 2 weeks
# [2] = test system: ReNCell VM; test: dopaminergic neuron differentiation score (TH+ cell fraction vs untreated, manual image score) (score (0 to 3)); higher = more TH+ dopaminergic neuron differentiation; conditions: 2 uM, 4 weeks, BDNF 10 ng/ml + GDNF 10 ng/ml
smiles,measurement,setting,value
O=C1NCN(c2ccccc2)C12CCN(CCCC(c1ccc(F)cc1)c1ccc(F)cc1)CC2 [Fluspirilene],neuronal differentiation score,[1]; library: LOPAC,inactive: 0
same,dopaminergic neuron differentiation score,[2]; library: LOPAC,inactive: 0
N[C@@H](Cc1c[nH]cn1)C(=O)O [L-Histidine hydrochloride],neuronal differentiation score,[1]; library: LOPAC,inactive: 0
same,dopaminergic neuron differentiation score,[2]; library: LOPAC,inactive: 0
Nc1c2c(nc3ccccc13)CCCC2O (stereo not drawn) [Hydroxytacrine maleate],neuronal differentiation score,[1]; library: LOPAC,inactive: 0
same,dopaminergic neuron differentiation score,[2]; library: LOPAC,inactive: 0
O=c1c(O)c(-c2ccc(O)c(O)c2)oc2cc(O)cc(O)c12 [Quercetine dihydrate],neuronal differentiation score,[1]; library: Phytochemical,inactive: 0
same,dopaminergic neuron differentiation score,[2]; library: Phytochemical,inactive: 0
CNc1ncnc2c1ncn2[C@H]1C[C@H](OP(=O)(O)O)[C@@H](COP(=O)(O)O)O1,neuronal differentiation score,[1]; library: LOPAC,inactive: 0
same,dopaminergic neuron differentiation score,[2]; library: LOPAC,inactive: 0
NCCNCCNCCN,neuronal differentiation score,[1]; library: Spectrum,inactive: 0
same,dopaminergic neuron differentiation score,[2]; library: Spectrum,inactive: 0
C/C=C1\[C@H]2C=C(C)C[C@]1(N)c1ccc(=O)[nH]c1C2,neuronal differentiation score,[1]; library: Spectrum,inactive: 0
same,dopaminergic neuron differentiation score,[2]; library: Spectrum,inactive: 0
CC(=O)/C(=C\c1ccccc1)CC(=O)O,neuronal differentiation score,[1]; library: Spectrum,inactive: 0
same,dopaminergic neuron differentiation score,[2]; library: Spectrum,inactive: 0
Cc1ccc2c(Cl)cc(Cl)c(O)c2n1,neuronal differentiation score,[1]; library: Spectrum,inactive: 0
same,dopaminergic neuron differentiation score,[2]; library: Spectrum,inactive: 0
CCCCCCCCCCC(C)(C)C(=O)Nc1c(OC)cc(OC)cc1OC,neuronal differentiation score,[1]; library: Tocriscreen,inactive: 0
same,dopaminergic neuron differentiation score,[2]; library: Tocriscreen,inactive: 0
CCCCCCc1ccc(O)cc1O,neuronal differentiation score,[1]; library: Spectrum,inactive: 0
same,dopaminergic neuron differentiation score,[2]; library: Spectrum,inactive: 0
CN1CCN(c2cc3c(cc2F)c(=O)c(C(=O)O)cn3-c2ccc(F)cc2)CC1,neuronal differentiation score,[1]; library: Spectrum,inactive: 0
same,dopaminergic neuron differentiation score,[2]; library: Spectrum,inactive: 0
O=C(O)[C@@H](O)[C@H](O)[C@H](O)[C@@H](O)C(=O)O,neuronal differentiation score,[1]; library: Spectrum,inactive: 0
same,dopaminergic neuron differentiation score,[2]; library: Spectrum,inactive: 0
CCCc1cc(=O)[nH]c(=S)[nH]1,neuronal differentiation score,[1]; library: Spectrum,inactive: 0
same,dopaminergic neuron differentiation score,[2]; library: Spectrum,inactive: 0
CCOC(=O)[C@H](CCc1ccccc1)N[C@@H](C)C(=O)N1CCC[C@H]1C(=O)O [Enalapril maleate],neuronal differentiation score,[1]; library: Prestwick,inactive: 0
same,dopaminergic neuron differentiation score,[2]; library: Prestwick,inactive: 0
CN(C)CCOC(=O)C(c1ccccc1)C1(O)CCCC1 (stereo not drawn),neuronal differentiation score,[1]; library: Spectrum,inactive: 0
same,dopaminergic neuron differentiation score,[2]; library: Spectrum,inactive: 0
O=c1c(O)c(-c2ccc(O)c(O)c2)oc2cc(O)cc(O)c12,neuronal differentiation score,[1]; library: Spectrum,inactive: 0
same,dopaminergic neuron differentiation score,[2]; library: Spectrum,inactive: 0
COc1cc(C2Oc3cc([C@H]4Oc5cc(O)cc(O)c5C(=O)[C@@H]4O)ccc3OC2CO)ccc1O (stereo partly drawn) [silibinin],neuronal differentiation score,[1]; library: Natural,inactive: 0
same,dopaminergic neuron differentiation score,[2]; library: Natural,inactive: 0
CN(C)CC(=O)OC[C@@H](O)[C@@H](O)[C@H](O)[C@@H](O)C(=O)O,neuronal differentiation score,[1]; library: Spectrum,inactive: 0
same,dopaminergic neuron differentiation score,[2]; library: Spectrum,inactive: 0
OC[C@H]1O[C@H]([S-])[C@H](O)[C@@H](O)[C@@H]1O.[Au+] [Aurothioglucose],neuronal differentiation score,[1]; library: LOPAC,inactive: 0
same,dopaminergic neuron differentiation score,[2]; library: LOPAC,inactive: 0
COc1ccc(NC(=O)c2cc(OCCCN(C)C)nn2Cc2ccccc2)cc1 [CFM 1571 hydrochloride],neuronal differentiation score,[1]; library: Tocriscreen,inactive: 0
same,dopaminergic neuron differentiation score,[2]; library: Tocriscreen,inactive: 0
C[N+](C)(C)CCCCCC[N+](C)(C)C [Hexamethonium dibromide dihydrate],neuronal differentiation score,[1]; library: Prestwick,inactive: 0
same,dopaminergic neuron differentiation score,[2]; library: Prestwick,inactive: 0
COc1ccc([C@@H]2CNC(=O)C2)cc1OC1CCCC1 [(R)-(-)-Rolipram],neuronal differentiation score,[1]; library: Tocriscreen,inactive: 0
same,dopaminergic neuron differentiation score,[2]; library: Tocriscreen,inactive: 0
COc1cc(C(=O)O)cc(OC)c1O,neuronal differentiation score,[1]; library: Spectrum,inactive: 0
same,dopaminergic neuron differentiation score,[2]; library: Spectrum,inactive: 0
C#CCN(C)CCCOc1ccc(Cl)cc1Cl,neuronal differentiation score,[1]; library: Spectrum,inactive: 0
same,dopaminergic neuron differentiation score,[2]; library: Spectrum,inactive: 0
CC(=O)OCC(=O)[C@@]12OC3(CCCC3)O[C@@H]1C[C@H]1[C@@H]3CCC4=CC(=O)C=C[C@]4(C)[C@@]3(F)[C@@H](O)C[C@@]12C,neuronal differentiation score,[1]; library: Spectrum,inactive: 1
same,dopaminergic neuron differentiation score,[2]; library: Spectrum,inactive: 0
O=c1n(CCCN2CCN(c3cccc(Cl)c3)CC2)nc2ccccn12,neuronal differentiation score,[1]; library: Spectrum,inactive: 1
same,dopaminergic neuron differentiation score,[2]; library: Spectrum,inactive: 0
CCc1nn(CCCN2CCN(c3cccc(Cl)c3)CC2)c(=O)n1CCOc1ccccc1 [Nefazodone HCl],neuronal differentiation score,[1]; library: Prestwick,inactive: 0
same,dopaminergic neuron differentiation score,[2]; library: Prestwick,active: 3
OC1CCC(Nc2nc(-c3ccccc3)nc3[nH]ccc23)CC1 (stereo not drawn),neuronal differentiation score,[1]; library: Tocriscreen,inactive: 0
same,dopaminergic neuron differentiation score,[2]; library: Tocriscreen,active: 3
C[C@@H](O)[C@H]1C(=O)N2C(C(=O)O)=C(SCCNC=N)C[C@H]12,neuronal differentiation score,[1]; library: Spectrum,inactive: 1
same,dopaminergic neuron differentiation score,[2]; library: Spectrum,inactive: 0
CCCCC[C@H](O)/C=C/[C@H]1[C@H](O)CC(=O)[C@@H]1C/C=C\CCCC(=O)O [Prostaglandin E2],neuronal differentiation score,[1]; library: Tocriscreen,inactive: 0
same,dopaminergic neuron differentiation score,[2]; library: Tocriscreen,inactive: 0
O=C(O)CN1C(=O)c2cccc3cccc(c23)C1=O,neuronal differentiation score,[1]; library: Spectrum,inactive: 0
same,dopaminergic neuron differentiation score,[2]; library: Spectrum,inactive: 0
CCC(=O)NC1Cc2ccccc2C(c2ccccc2)C1 (stereo not drawn),neuronal differentiation score,[1]; library: Tocriscreen,inactive: 0
same,dopaminergic neuron differentiation score,[2]; library: Tocriscreen,inactive: 0
CNCCCCOc1ccccc1Cc1ccccc1 [Bifemelane hydrochloride],neuronal differentiation score,[1]; library: Tocriscreen,inactive: 0
same,dopaminergic neuron differentiation score,[2]; library: Tocriscreen,inactive: 0

# An excerpt of these results, tab-delimited:
smiles	measurement	setting	value
O=c1c(O)c(-c2ccc(O)c(O)c2)oc2cc(O)cc(O)c12 [Quercetine dihydrate]	neuronal differentiation score	[1]; library: Phytochemical	inactive: 0
NCCNCCNCCN	dopaminergic neuron differentiation score	[2]; library: Spectrum	inactive: 0
COc1cc(C(=O)O)cc(OC)c1O	neuronal differentiation score	[1]; library: Spectrum	inactive: 0

# Source: the supplement of paper PMC4635364
